# Measurements reported in PMC4274154, “DEAF1 Binds Unmethylated and Variably Spaced CpG Dinucleotide Motifs”.
# The comparison behind a weaker result is the experiment's own reference, which may not be listed here. Protein sequences can lack the tags named with them.
# Target: T1, DEAF1-FLAG (UniProt O75398)
# T1 sequence (looked up): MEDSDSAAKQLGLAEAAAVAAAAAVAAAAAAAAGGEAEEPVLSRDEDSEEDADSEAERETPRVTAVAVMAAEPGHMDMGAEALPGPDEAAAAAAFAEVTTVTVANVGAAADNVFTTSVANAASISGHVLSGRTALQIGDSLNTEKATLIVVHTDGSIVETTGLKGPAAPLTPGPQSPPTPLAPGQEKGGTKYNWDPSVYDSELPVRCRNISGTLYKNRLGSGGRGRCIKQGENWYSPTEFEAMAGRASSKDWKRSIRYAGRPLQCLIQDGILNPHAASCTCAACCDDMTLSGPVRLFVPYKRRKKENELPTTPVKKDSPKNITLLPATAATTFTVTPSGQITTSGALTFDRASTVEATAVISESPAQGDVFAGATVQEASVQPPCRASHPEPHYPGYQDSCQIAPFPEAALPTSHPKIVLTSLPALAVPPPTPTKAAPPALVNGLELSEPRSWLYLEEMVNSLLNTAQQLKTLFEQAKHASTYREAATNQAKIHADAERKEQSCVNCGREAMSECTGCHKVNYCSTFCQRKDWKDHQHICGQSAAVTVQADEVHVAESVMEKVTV
# Test: EMSA
# Details: probe alone, greatly reduced relative to N52-69 and 6con; EMSA: 200 ng DEAF1-FLAG, 30 min at room temperature, 1x EMSA binding buffer (composition and pH not given), 1 ug dA:dT, 5% native polyacrylamide gel; recombinant protein; residues 1-565; protein details: FLAG; label: IR700 at 5' ends
sequence,measurement,value
AGAGTCTCTGAGGGTTTTCCTCGTGCCTG (double strand) [Htr1a mouse#1],binding result,binds more weakly
